From patent US9670217B2, “Process for preparing chlorins and their pharmaceutical uses” (UNIVERSIDADE DE COIMBRA, priority 2008, dated 2017)
pIC50: −log10 of the molar value. In brackets after ≈: the same amount, converted by molar mass. Read-outs that look alike come from different tables or passages of the source. At least one compound was matched to its structure with a doubt left. Marks after values point to notes of the source that are not given here.

Key:
[1] = in methanol [45]; cited from earlier work
[2] = tested on: human adenocarcinoma (HT29) cell line; settings: cited from earlier work
[3] = in methanol [45]; cited from earlier work; remark: listed apart in the source
[4] = cited from earlier work
[5] = tested on: human adenocarcinoma (HT29) cell line; settings: cited from earlier work; remark: listed apart in the source
[6] = Chlorin biodistribution following ip administration; format: in vivo, DBA/2 mice; settings: 10 mg/kg ip, two hours after administration
[7] = HT29, dye laser at 650 nm, 10 J/cm^2 [50]

Row | SMILES | ΦF (fluorescence quantum yield) [1] | IC50 phototoxicity [2, 7] | IC90 phototoxicity [2, 7] | pIC50 ([2]; HT29, light dose of 10 J/cm^2, read-out: IC50 phototoxicity) | ΦΔ (singlet oxygen quantum yield) [3] | εmax ([4]; in methanol [44]) | λmax ([4]; reference photosensitizers) | ICdark50 ([5]; HT29, in the dark [50]) | pIC50 ([5]; HT-29, in the dark [50], read-out: IC50 dark toxicity (ICdark50)) | blood-brain distribution [6]
1 | Oc1cccc(-c2c3nc(c(-c4cccc(O)c4)c4ccc([nH]4)c(-c4cccc(O)c4)c4nc(c(-c5cccc(O)c5)c5ccc2[nH]5)CC4)C=C3)c1 [Foscan®, 5,10,15,20-tetrakis(3-hydroxyphenyl)chlorin] | 0.089^f) | 0.8 µg/mL (≈ 1.18 µM) | > 10 µg/mL | 5.92 | 0.43^f) | 29,600^e) M^−1 cm^−1 | 650 nm | 13 µg/mL | 4.72 | 
2 | O=S(=O)(O)c1ccc(Cl)c(-c2c3nc(c(-c4cc(S(=O)(=O)O)ccc4Cl)c4ccc([nH]4)c(-c4cc(S(=O)(=O)O)ccc4Cl)c4nc(c(-c5cc(S(=O)(=O)O)ccc5Cl)c5ccc2[nH]5)CC4)C=C3)c1 [Luzitin-Cl-c, 5,10,15,20-tetrakis(2-chloro-5-sulfonylphenyl)chlorin] |  |  |  |  |  |  |  |  |  | 4:1
